Taken from: PubChem BioAssay AID686943 (Drosophila RNAi Screening Center, 2013)
The deposit covers about 23,000 reagents; this is a random part of those that have a named target and a result. 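Extra replicates exist only for a retested subset of genes; insulin dose and duration not given; both raised and lowered dpERK matter.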 Reagents against one gene are numbered here. A plus sign joins genes that one reagent is predicted to hit. Further read-outs or replicates are left out here. Not stated in the record: the amount of reagent, the time to read-out.

Assay: 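Knockdowns that increase or decrease active ERK after insulin receptor stimulation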 (primary screen)
System: Drosophila S2R+ haemocyte-like cells expressing YFP-tagged ERK (Rolled)
Knock-down reagent: long dsRNA against Drosophila genes
Challenge: insulin stimulation versus unstimulated cells; dose and duration not given
Read-out: 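Per-plate z-scores of phospho-ERK immunostaining normalised to YFP-tagged ERK, measured with and without insulin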
Reading the numbers: replicate 1, z-score of dpERK with insulin and replicate 2, z-score of dpERK with insulin: higher = more active ERK per ERK-YFP after insulin

The first 4 records, ahead of the listing:
predicted target,reagent,"replicate 1, z-score of dpERK with insulin","replicate 2, z-score of dpERK with insulin"
CG14191,1,0,-0.19
BaraC,1,-2.01,-1.04
Sod2,1,-0.21,0.5
htk,1,-0.43,-1.29

Results, repeating the preview:
predicted target,reagent,"replicate 1, z-score of dpERK with insulin","replicate 2, z-score of dpERK with insulin"
CG14191,1,0,-0.19
BaraC,1,-2.01,-1.04
Sod2,1,-0.21,0.5
htk,1,-0.43,-1.29
htk,2,0.34,0.97
CG17996 + Tsen2,1,-0.93,0.42
Or22a,1,-0.69,-0.08
epsilonTry,1,0.25,0.86
Xrcc2,1,1,0.49
tho2,1,1.37,0.72
CG15385,1,0.24,0.59
CG1598,1,-0.9,0.71
Mtr4,1,1.19,0.41
CG32983,1,0.75,0.37
PolA2,1,0.64,0.08
CG10151,1,0.26,0.38
Fkbp39,1,0.95,0.63
Cp7Fa,1,-0.4,0.4
Cp7Fa,2,0,-0.46
l(3)72Dr,1,-0.07,-0.38
RpL23A,1,-1.21,-1.67
RpL23A,2,0.21,0.13
bocks,1,-1.08,-0.45
ACXC,1,-0.46,-0.31
ppk3,1,0.35,0.16
UQCR-11L,1,0.07,0.96
CG40486,1,-0.9,-3.13
CatB,1,-1.28,0.43
CG8281,1,0.64,0.22
CG4374,1,1.33,-0.22
polyph,1,-0.12,-0.27
CG4872,1,0.07,-0.06
CG13693,1,0.11,-0.59
CG34028,1,-0.17,0.17
CG13309,1,-0.49,0.11
CG32199,1,-0.63,0.25
CG12093,1,0.07,-0.41
pdm2,1,-0.42,-0.1
pdm2,2,2.42,1.72
pdm2,3,0.18,0.09
